The record followed here is article PMC10930919.

No constants are given. Whether binding was seen depends on the method and setting. In cells and extracts the contact can be indirect. Some results given as binding are weak or reduced against the parent protein; the word gives no strength. For part of these data: Tags and fused reporters may be left off the sequences shown.

One experiment has as its target MYC-tagged p53 (human) (UniProt P04637). Nature of the experiment: co-IP; H1299 cells co-transfected with MYC-tagged p53 and HIS-tagged JDP2 (WT or truncated) or ATF3, 48 h; whole cell lysates immunoprecipitated with anti-MYC antibody, blots with anti-ATF3, anti-JDP2 or anti-HIS.
The target of experiment [1] is p53 (p53 expression plasmid of Figure 2A) (human) (UniProt P04637). Nature of the experiment: co-IP; H1299 cells co-transfected with p53 and JDP2 plasmids, 48 h; whole cell lysates immunoprecipitated with anti-p53 antibody, blot with anti-JDP2.

B1: HIS-tagged activating transcription factor 3 (ATF3) (protein, UniProt P18847 1-181)
chain: MMLQHPGQVSASEVSASAIVPCLSPPGSLVFEDFANLTPFVKEELRFAIQNKHLCHRMSSALESVTVSDRPLGVSITKAEVAPEEDERKKRRRERNKIAAAKCRNKKKEKTECLQKESEKLESVNAELKAQIEELKNEKQHLIYMLNLHRPTCIVRAQNGRTPEDERNLFIQQIKEGTLQS
Regarding B1, the binding result with MYC-tagged p53 (human) was “binds”.

B2: Jun dimerization protein 2 (JDP2 expression plasmid of Figure 2A) (protein, UniProt Q8WYK2 1-163)
chain: MMPGQIPDPSVTTGSLPGLGPLTGLPSSALTVEELKYADIRNLGAMIAPLHFLEVKLGKRPQPVKSELDEEEERRKRRREKNKVAAARCRNKKKERTEFLQRESERLELMNAELKTQIEELKQERQQLILMLNRHRPTCIVRTDSVKTPESEGNPLLEQLEKK
In the case of B2, the binding result in experiment [1] was “binds”.

B3: HIS-tagged Jun dimerization protein 2 (JDP2), WT (protein, UniProt Q8WYK2 1-163)
chain: MMPGQIPDPSVTTGSLPGLGPLTGLPSSALTVEELKYADIRNLGAMIAPLHFLEVKLGKRPQPVKSELDEEEERRKRRREKNKVAAARCRNKKKERTEFLQRESERLELMNAELKTQIEELKQERQQLILMLNRHRPTCIVRTDSVKTPESEGNPLLEQLEKK
For the molecule B3, the binding result with MYC-tagged p53 (human) is “binds”.
